Experimental data reported in patent US20020098524A1 (published 2002).
No constants are given. Whether binding was seen depends on the method and setting. Some entries that bind do so weakly or less than the wild type.

The chains behind the UniProt entries cited, without tags or fusion partners. Where a name states a change or a piece, a line headed by the entry shows the natural chain unless it says otherwise. A line that says so, or that is headed by a name, gives the form on record, which may keep a tag or linker.
recombinant human VEGF (P15692, form named): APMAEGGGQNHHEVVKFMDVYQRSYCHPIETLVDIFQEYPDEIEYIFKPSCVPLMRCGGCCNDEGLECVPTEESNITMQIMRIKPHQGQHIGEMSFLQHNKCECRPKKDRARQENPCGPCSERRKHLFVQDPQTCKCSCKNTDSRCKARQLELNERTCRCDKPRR

Tests used:
[1] = molecular target: recombinant human VEGF (human) (UniProt P15692); assay: phage display selection on VEGF-coated polystyrene beads after deselection on whole human blood, 2 rounds, PCR of bound phage
[2] = molecular target: recombinant human VEGF (human) (UniProt P15692); assay: conventional phage biopanning on VEGF, acid elution, 3 rounds

Row | Binder | binding [1] | binding [2]
1 | CSKHSQITC [V-1 (…)] | binds | –
2 | CKTNPSGSC [V-2 (…)] | binds | –
3 | CRPTGHSLC [V-3 (…)] | binds | –
4 | CKHSAKAEC [V-4 (…)] | binds | –
5 | CYNLYGWTC [BP 81 (…)] | – | binds
6 | CTLWPTFWC [BP 82 (…)] | – | binds
7 | CNLWPHFWC [BP 83 (…)] | – | binds
8 | CSLWPAFWC [BP 84 (…)] | – | binds
9 | CSLWPHFWC [BP 85 (…)] | – | binds
10 | CAPWNSHIC [BP 86 (…)] | – | binds
11 | CAPWNLHIC [BP 87 (…)] | – | binds
12 | CLPSWHLRC [BP 96 (…)] | – | binds
13 | CPTILEWYC [BP 97 (…)] | – | binds
14 | CTLYPQFWC [BP 02 (…)] | – | binds
15 | CHLAPSAVC [BP 04 (…)] | – | binds

Second part, the binder after the results:

Row | binding [1] | binding [2] | Binder
16 | binds | – | CKPSSASSC [V-5 (…)]
17 | binds | – | CPVTKRVHC [V-6 (…)]
18 | binds | – | CTLHWWVTC [V-7 (…)]
19 | binds | – | CPYKASFYC [V-8 (…)]
20 | binds | – | CPLRTSHTC [V-9 (…)]
21 | binds | – | CEATPRDTC [V-10 (…)]
22 | binds | – | CNPLHTLSC [V-11 (…)]
23 | binds | – | CKHERIWSC [V-12 (…)]
24 | binds | – | CATNPPPMC [V-13 (…)]
25 | binds | – | CSTTSPNMC [V-14 (…)]
26 | binds | – | CADRSFRYC [V-15 (…)]
27 | binds | – | CPKADSKQC [V-16 (…)]
28 | binds | – | CPNQSHLHC [V-17 (…)]
29 | binds | – | CSGSETWMC [V-18 (…)]
30 | binds | – | CALSAPYSC [V-19 (…)]
31 | binds | – | CKMPTSKVC [V-20 (…)]
32 | binds | – | CITPKRPYC [V-21 (…)]
33 | binds | – | CKWIVSETC [V-22 (…)]
34 | binds | – | CPNANAPSC [V-23 (…)]
35 | binds | – | CNVQSLPLC [V-24 (…)]
